Residue numbers refer to the chain shown, from its start. No constants are given. Whether binding was seen depends on the method and setting. For some of these results: Binding seen in cells or lysates may run through a third protein. Some binding calls cover weakened binding; strength is not graded here.
What was measured:
[1] = target: T1, LigA, alpha subunit of protocatechuate 4,5-dioxygenase (LigAB), wild-type (Sphingobium sp. strain SYK-6) (UniProt P22635); assay: pull-down; co-purification of untagged LigB with His6-LigA on HisPur Ni-NTA resin from lysate of co-expressing E. coli, aerobic; 50 mM HEPES, 300 mM NaCl, pH 8.0, imidazole step gradient (62.5, 125, 250 mM); fractions on SDS-PAGE, Coomassie, quantified with ImageQuant
T1 sequence: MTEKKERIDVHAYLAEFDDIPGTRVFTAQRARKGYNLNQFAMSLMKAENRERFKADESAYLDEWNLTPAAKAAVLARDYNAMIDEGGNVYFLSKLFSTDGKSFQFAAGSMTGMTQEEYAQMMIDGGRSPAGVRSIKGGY

Sequences of proteins named here, by UniProt entry; tags and fusion partners are left off.
UniProt P22636: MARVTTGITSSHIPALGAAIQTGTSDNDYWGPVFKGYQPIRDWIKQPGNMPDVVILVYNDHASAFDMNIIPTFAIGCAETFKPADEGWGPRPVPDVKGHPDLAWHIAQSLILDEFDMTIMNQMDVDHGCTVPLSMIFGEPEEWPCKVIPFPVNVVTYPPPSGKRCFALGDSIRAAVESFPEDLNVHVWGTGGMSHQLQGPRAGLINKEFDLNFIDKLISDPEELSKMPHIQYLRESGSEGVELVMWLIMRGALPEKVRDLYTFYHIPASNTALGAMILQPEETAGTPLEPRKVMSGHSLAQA

[2] = target: T2, LigA F103H (Sphingobium sp. strain SYK-6) (UniProt P22635); assay: as above
T2 sequence: T1 sequence with F103H

[3] = target: T3, LigA F103T (Sphingobium sp. strain SYK-6) (UniProt P22635); assay: as above
T3 sequence: T1 sequence with F103T

[4] = target: T4, LigA F103V (Sphingobium sp. strain SYK-6) (UniProt P22635); assay: as above
T4 sequence: T1 sequence with F103V

[5] = target: T5, LigA F103L (Sphingobium sp. strain SYK-6) (UniProt P22635); assay: as above
T5 sequence: T1 sequence with F103L

[6] = target: T6, LigA F103A (Sphingobium sp. strain SYK-6) (UniProt P22635); assay: as above
T6 sequence: T1 sequence with F103A

[7] = target: T7, LigA F103S (Sphingobium sp. strain SYK-6) (UniProt P22635); assay: as above
T7 sequence: T1 sequence with F103S

[8] = target: T1, LigA, alpha subunit of protocatechuate 4,5-dioxygenase (LigAB), wild-type (Sphingobium sp. strain SYK-6); assay: native gel or EMSA; 10% native polyacrylamide gel of purified LigAB (wild-type, F103A, F103S), Coomassie stained, 6.25 to 50 ug protein per lane; masses calculated from the bands; both purified
[9] = target: T6, LigA F103A (Sphingobium sp. strain SYK-6); assay: as above
[10] = target: T7, LigA F103S (Sphingobium sp. strain SYK-6); assay: as above

binding [1]: binds | binding [2]: binds | binding [3]: binds | binding [4]: binds | binding [5]: binds | binding [6]: binds | binding [7]: binds | binding [8]: binds | binding [9]: binds | binding [10]: binds
Substance: LigB, beta subunit of protocatechuate 4,5-dioxygenase (LigAB) (from UniProt P22636 1-302)

From publication PMC10094722
